According to PubChem BioAssay AID540275 (National Center for Advancing Translational Sciences (NCATS), 2011):
About 620 (0.19%) of roughly 320,000 compounds were called active. Inconclusive results, whose numbers are uncertain, are shown with a selection of clear calls. Cut-off read from the data, not from the text of the source: active = activation above about 80%; inconclusive = between about 30% and that limit; inactive = weaker than that.

Chains of the proteins cited; added tags and fusions are not shown.
UniProt Q8NER1, whole entry, looked up: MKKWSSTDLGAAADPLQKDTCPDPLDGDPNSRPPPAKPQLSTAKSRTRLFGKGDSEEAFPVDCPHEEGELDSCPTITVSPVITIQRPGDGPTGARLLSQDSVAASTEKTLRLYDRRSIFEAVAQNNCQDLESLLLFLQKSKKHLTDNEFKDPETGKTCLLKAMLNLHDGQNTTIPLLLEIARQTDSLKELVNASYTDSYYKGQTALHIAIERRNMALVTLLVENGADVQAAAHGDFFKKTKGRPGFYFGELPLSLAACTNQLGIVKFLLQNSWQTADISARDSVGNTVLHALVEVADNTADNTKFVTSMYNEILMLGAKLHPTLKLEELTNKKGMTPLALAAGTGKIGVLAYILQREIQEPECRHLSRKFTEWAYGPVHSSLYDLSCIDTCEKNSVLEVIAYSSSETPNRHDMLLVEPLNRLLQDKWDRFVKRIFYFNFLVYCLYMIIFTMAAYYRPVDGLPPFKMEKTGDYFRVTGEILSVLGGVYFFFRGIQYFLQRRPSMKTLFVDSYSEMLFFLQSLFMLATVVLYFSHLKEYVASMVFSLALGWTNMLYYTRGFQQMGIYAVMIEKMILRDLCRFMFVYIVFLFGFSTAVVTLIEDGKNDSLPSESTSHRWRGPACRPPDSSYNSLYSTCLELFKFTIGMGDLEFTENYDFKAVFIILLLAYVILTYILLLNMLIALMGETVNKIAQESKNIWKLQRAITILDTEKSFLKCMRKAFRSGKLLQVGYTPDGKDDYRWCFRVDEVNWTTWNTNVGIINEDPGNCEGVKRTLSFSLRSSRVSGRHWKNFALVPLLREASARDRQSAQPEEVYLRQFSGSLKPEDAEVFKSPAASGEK

Each compound was assayed against Transient receptor potential cation channel subfamily V member 1 (Homo sapiens) (UniProt Q8NER1) (assay: HTS Assay for Compounds that Act as Agonists of the Vanilloid Receptor 1). Settings: TRPV1-expressing cells, Fluo-8 calcium influx, agonist mode; at 8.33 µM, active compounds read high.
Method in brief: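 Cells expressing TRPV1 were dye-loaded with Fluo-8 and read kinetically: 10 s baseline, 3 min after compound (agonist portion), then 2 min after EC20 capsaicin (allosteric enhancer portion). Calcium-bound dye fluorescence at 480/520 nm.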
Note: 0% is about no effect.

Row | Compound | activation
1 | S=C(NCc1cccnc1)Nc1ccc(Cl)c(Cl)c1 | inconclusive: 64.7%
2 | Cc1ccc(S(=O)(=O)N2CCCC2C(=O)OCc2nc3ccccc3s2)cc1 (stereo unspecified) | inactive: 0.168%
3 | CCC(C)n1c(=S)[nH]c2c(sc3ccc([N+](=O)[O-])cc32)c1=O (stereo unspecified) | inconclusive: 55.3%
4 | CC(=O)c1cc(CN2CCCCC2)cc(OC(C)C)c1 | inactive: 1.16%
5 | O=C(COC(=O)COc1cccc(C(F)(F)F)c1)NC(=O)NC1CCCCC1 | inconclusive: 30.6%
6 | Cc1ccc(C(=O)N/C(=C/C=C/c2ccccc2)C(=O)NCc2ccco2)cc1 | inconclusive: 50.7%
7 | CC(=O)c1c(C)[nH]c(C(=O)CSc2nc3ccc(C)cc3[nH]2)c1C | inactive: 9.2%
8 | CC(C)Cn1c(CNC(=O)c2ccccc2)nc2ccccc21 | inconclusive: 32.4%
9 | Cn1nc(C(C)(C)C)c([N+](=O)[O-])c1C(=O)Nc1ccc(Br)cc1 | inconclusive: 64.9%
10 | O=[N+]([O-])c1cnc2nc(-c3ccncc3)nn2c1O | inactive: -0.984%
11 | CC(C)CC(=O)NC(=S)Nc1ccccc1N1CCCC1 | inconclusive: 38.8%
12 | Nc1c(-c2cccc(Cl)c2)cnn1-c1cccc(C(F)(F)F)c1 | inconclusive: 43.9%
13 | CCN1CCN(C(=O)c2cc(COc3c(C)cccc3C)on2)CC1 | inconclusive: 55.3%
14 | CCOC(=O)Cc1csc(NC(=O)c2cc(C)c(C)s2)n1 | inconclusive: 31%
15 | CC(C)CC(=O)/C=C/n1c(=S)oc2ccccc21 | inactive: 2.53%
16 | CCCCN1C(=O)N(c2ccccc2Cl)C(C)(O)CC1(C)C (stereo unspecified) | inconclusive: 39.1%
17 | CCOC(=O)C1=C(C)C/C(=N\NC(=O)c2ccccc2O)CC1 | inconclusive: 47%
18 | Cc1cnc(C(=O)Nc2ccc(N3CCCCC3)cc2)cn1 | inconclusive: 69%
19 | O=C(COC(=O)c1cc(S(=O)(=O)N2CCCCC2)ccc1N1CCOCC1)NCCc1ccc(F)cc1 | inactive: -1.53%
20 | Cc1ccc(F)cc1CNC(=O)C1CCC(=O)N(CC2CCCCC2)C1 (stereo unspecified) | inconclusive: 33.1%
21 | CC1CCCCN1CCCn1c(=S)[nH]c2ccccc2c1=O (stereo unspecified) | inactive: 1.39%
22 | O=C(Nc1cccc(F)c1)/C(=C\c1ccco1)NC(=O)c1ccco1 | inactive: 1.02%
23 | Cc1c(C(=O)NCCSc2ccc(Cl)cc2)cccc1[N+](=O)[O-] | inconclusive: 43.7%

Row | Compound | activation
24 | Cc1cccc(NC(=O)c2nc[nH]c2C(=O)NCc2ccccc2)c1 | inconclusive: 31.1%
25 | S=c1[nH]cc(-c2ccccc2)n1-c1cccc(Cl)c1 | inactive: -1.93%
26 | Cc1nn(-c2ccccc2)c(N)c1C(c1ccc(C(C)C)cc1)c1c(C)nn(-c2ccccc2)c1N | inconclusive: 42.7%
27 | CCCc1nc(Nc2nc3ccccc3o2)nc(C)c1C(=O)OCC | inactive: 0.973%
28 | CCCn1c(NC(=O)CCNC(=O)c2ccccc2Cl)nc2ccccc21 | inactive: -0.727%
29 | C/C(=N\OC(=O)c1ccc(C)cc1)c1sc(C)nc1C | inactive: 4.46%
30 | CCN(CC)S(=O)(=O)c1ccc(NC(=O)c2cnccn2)cc1 | inconclusive: 67.3%
31 | CCn1c2ccccc2c2cnc(N=CN(C)C)c(C#N)c21 | inconclusive: 31.9%
32 | CCCCCCCn1c(NC(=O)CC)nc2ccccc21 | inconclusive: 48.6%
33 | CC1CC(C)CN(CCCNC(=O)C2CCCN(c3ncnc4c3nc3n4CCCCC3)C2)C1 (stereo unspecified) | inactive: 10%
34 | S=C(NCc1cccnc1)Nc1ccc(Oc2ccccc2)cc1 | inconclusive: 71.5%
35 | O=C1C2C3CCCC3=C3CCCC3C2C(=O)N1c1ccc(F)cc1 (stereo unspecified) | inconclusive: 30.3%
36 | CCCCNC(=O)CSc1cc(=O)n(C)c2ccccc12 | inconclusive: 40.7%
37 | CCCCCCCCNC(=O)c1cnccn1 | inconclusive: 39.6%
38 | O=C(O)C1Cc2[nH]cnc2C(c2ccccc2O)N1 (stereo unspecified) | inactive: -1.57%
39 | CCn1ccc(C(=O)Nc2ccc(S(=O)(=O)Nc3ccccc3OC)cc2)n1 | inconclusive: 59.9%
40 | Cc1ccc(Cn2ncc(Cl)c(Cl)c2=O)cc1 | inactive: 23.7%
41 | COc1ccc(-c2c(-c3ccc(OC)cc3O)nc(C)nc2C(F)(F)F)cc1 | inconclusive: 57.8%
42 | CCOC(=O)N1CCC(Nc2ncnc3c2cnn3-c2ccc(C)cc2C)CC1 | inconclusive: 31.6%
43 | Nc1c(C(=O)c2ccccc2)sc2snc(SCC(=O)c3ccccc3)c12 | inconclusive: 38.8%
44 | Cc1ccc(-c2cc(C(F)(F)F)c(C#N)c(SCC(=O)O)n2)cc1 | inactive: 8.16%
45 | O=C(Nc1ccc(Br)cc1)c1ccco1 | inconclusive: 52.6%
46 | CCN(CC)CC(=O)Nc1sc(C)cc1C(=O)c1ccccc1 | inactive: 15.1%

Row | Compound | activation
47 | S=C(Nc1ccccc1)N1N=CCC1c1ccccc1 (stereo unspecified) | inactive: -0.745%
48 | COc1cc(NC(=S)N2CCN(S(=O)(=O)c3ccc(F)cc3)CC2)cc(OC)c1 | inconclusive: 33.5%
49 | COc1cc(Nc2c3c(nc4ccccc24)CCC3)cc(OC)c1OC | inactive: -2.05%
50 | CCOC(=O)c1cnc2ccc(OCC)cc2c1N(C)Cc1ccccc1 | inconclusive: 46.2%
51 | CC(C)(C)c1ccc(OCc2nnc(SCC(N)=O)n2N)cc1 | inconclusive: 30.8%
52 | Cc1ccc(NC(=O)CCCc2c[nH]c3ccccc23)nc1 | inconclusive: 68.4%
53 | Cc1ccc(/C=C/c2onc(C)c2S(=O)(=O)N2CCC(C(=O)N3CCCCC3)CC2)cc1 | inconclusive: 72.2%
54 | O=C(CCc1ccccn1)N1CCCC(Nc2cccc(F)c2)C1 (stereo unspecified) | inconclusive: 59.3%
55 | CCOC(=O)CC1C(=O)NCCN1c1nc2c(C)cccn2c(=O)c1/C=C1\SC(=S)N(C(C)CC)C1=O (stereo unspecified) | inconclusive: 32.3%
56 | N/C(=N\c1nc2ccccc2o1)NC(=O)c1ccccc1 | inconclusive: 33.3%
57 | CN(CC(=O)Nc1ccccc1-c1ccccc1)Cc1ccccc1Cl | inconclusive: 41%
58 | CCOc1ccc(NC(=O)n2ncc3c(C)cccc32)cc1 | inconclusive: 56.7%
59 | CC(C)CCn1c(O)c(N=NC(=O)c2ccco2)c2ccccc21 | inconclusive: 43.8%
60 | CC(C)CCN(Cc1ccco1)S(=O)(=O)c1csc(C(N)=O)c1 | inconclusive: 33.9%
61 | CC(=O)N1CCCc2cc(S(=O)(=O)N3CCCC(C(=O)N4CCN(c5cc(C)ccc5C)CC4)C3)ccc21 (stereo unspecified) | inconclusive: 51.6%
62 | Cc1noc(C)c1COc1ccccc1C(=O)NCCc1ccc(Cl)cc1 | inconclusive: 44.6%
63 | COC(=O)c1c(NC(=O)CN2C(=O)c3ccccc3C2=O)sc(Cc2ccc3c(c2)OCO3)c1C | inactive: -2.84%
64 | COc1ccc(C(=O)Nc2ccc(S(=O)(=O)N3CCCC3)cc2)cc1[N+](=O)[O-] | inconclusive: 34.3%
65 | O=C(NCc1ccc(F)cc1)C(Cc1ccccc1)n1cccc1 (stereo unspecified) | inconclusive: 40.9%
66 | Cc1ccc2nc(NCCCN3CCOCC3)c(C=NCCCN3CCOCC3)c(=O)n2c1 | inactive: -0.646%
67 | CCOc1ccc(Cl)cc1S(=O)(=O)N1CCC(C(=O)NCc2ccncc2)CC1 | inconclusive: 74.9%
68 | CCCc1ccc2oc(C(=O)NCCN3CCCC(O)C3)c(C)c2c1 (stereo unspecified) | inconclusive: 35.9%
69 | CC(CNC(=O)c1cc(COc2ccc3ncccc3c2)on1)c1ccccc1 (stereo unspecified) | inconclusive: 40.8%

Two compounds picked at random from the list so far, as already listed:
Row | Compound | activation
66 | Cc1ccc2nc(NCCCN3CCOCC3)c(C=NCCCN3CCOCC3)c(=O)n2c1 | inactive: -0.646%
55 | CCOC(=O)CC1C(=O)NCCN1c1nc2c(C)cccn2c(=O)c1/C=C1\SC(=S)N(C(C)CC)C1=O (stereo unspecified) | inconclusive: 32.3%

Further structures follow:

Row | Compound | activation
70 | FC(F)(F)c1cccc(Nc2ncnc3ccccc23)c1 | inconclusive: 63.6%
71 | CCC(C)NC(=O)c1nc2c(nnn2Cc2ccccc2Cl)c(=O)[nH]1 (stereo unspecified) | inactive: -1.8%
72 | O=C(c1ccccc1)N1N=C(c2ccccc2)CC1c1ccccc1[N+](=O)[O-] (stereo unspecified) | inactive: 3.79%
73 | COc1ccccc1CNC(=O)COc1ccc(Br)c(C)c1 | inconclusive: 38.3%
74 | Cc1cc(Br)ccc1SCC(=O)Nc1cccnc1 | inconclusive: 43.4%
75 | O=C(Nc1ccccc1)N1CCN(S(=O)(=O)c2ccccc2)CC1 | inconclusive: 31%
76 | O=C(Nc1ccccc1F)c1ccc(C(=O)c2ccccc2)cc1 | inconclusive: 40%
77 | O=C(Nc1ccc(C(=O)Oc2ccccc2)c(O)c1)c1ccco1 | inconclusive: 35.2%
78 | CCc1nc(Nc2cc(OC)ccc2OC)c2oc3ccccc3c2n1 | inconclusive: 38.5%
79 | COc1ccccc1NS(=O)(=O)c1cccc(NC(=O)Nc2ccc(Cl)cc2)c1 | inactive: 4.54%
80 | O=C(COc1ccc(Cl)cc1)N1CCN(S(=O)(=O)c2ccc(Cl)cc2)CC1 | inconclusive: 38.9%
81 | Cc1cccc(Cn2c(=O)c3c(nc4n3CCN4Cc3ccco3)n(C)c2=O)c1 | inconclusive: 67.5%
82 | O=C(N/N=C/c1c(O)ccc2ccccc12)c1ccc(Br)o1 | inconclusive: 53%
83 | CC(C)N(C(=O)CSc1nc2ccccc2n1Cc1ccc(F)cc1)C(C)C | inconclusive: 60.9%
84 | O=C(Nc1ccccc1)c1ccc(NCCN2CCOCC2)c(S(=O)(=O)N2CCOCC2)c1 | inconclusive: 32%
85 | CCCC/C(O)=C1\C(=O)CC(C)(C)CC1=Nc1ccccc1OC | inconclusive: 31.6%
86 | Cc1nn(-c2ccccc2)c(Cl)c1C(=O)NCC(C)c1ccccc1 (stereo unspecified) | inconclusive: 34.9%
87 | Cc1occc1-c1nnc(SCC(=O)N2CCN(c3ccccc3)CC2)n1C | inactive: -3.22%
88 | O=C(Nc1cccc(-n2cnnn2)c1)c1ccc(OC(F)(F)F)cc1 | inconclusive: 79.4%
89 | COc1cc(OC)c(OC)cc1/C=N/NC(=O)c1cc(-c2cccn2C)n[nH]1 | inactive: -2.72%
90 | CCOC(=O)c1nn(-c2ccccc2)c(=O)c2c(N)scc12 | inactive: -2.13%
91 | CC1CN(S(=O)(=O)c2cc(C(=O)NCCC3=CCCCC3)ccc2Cl)CC(C)O1 (stereo unspecified) | inconclusive: 64.8%
